Laboratory results published in PMC11232215.
These are yes or no findings as the source states them, for the method shown. Binding seen in cells or lysates may run through a third protein. For some assays here: Sequences can lack the tags named with a protein.

Sequences of proteins named here, by UniProt entry; tags and fusion partners are left off.
UniProt O00567: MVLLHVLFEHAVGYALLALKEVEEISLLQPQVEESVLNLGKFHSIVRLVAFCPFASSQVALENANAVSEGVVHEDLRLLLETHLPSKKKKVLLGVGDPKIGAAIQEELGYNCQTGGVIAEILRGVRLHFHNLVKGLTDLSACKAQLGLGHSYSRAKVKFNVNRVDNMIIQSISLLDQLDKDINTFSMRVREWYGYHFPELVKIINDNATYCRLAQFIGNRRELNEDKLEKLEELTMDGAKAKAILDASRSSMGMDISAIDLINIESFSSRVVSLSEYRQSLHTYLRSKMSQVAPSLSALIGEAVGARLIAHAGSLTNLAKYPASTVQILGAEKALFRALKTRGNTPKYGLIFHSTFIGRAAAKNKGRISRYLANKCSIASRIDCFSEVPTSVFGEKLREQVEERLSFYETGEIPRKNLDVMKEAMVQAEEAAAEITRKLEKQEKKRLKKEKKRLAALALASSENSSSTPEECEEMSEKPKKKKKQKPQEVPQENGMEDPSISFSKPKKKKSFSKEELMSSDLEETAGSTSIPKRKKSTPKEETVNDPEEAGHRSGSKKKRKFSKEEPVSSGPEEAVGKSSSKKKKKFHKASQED
UniProt Q9GZX7: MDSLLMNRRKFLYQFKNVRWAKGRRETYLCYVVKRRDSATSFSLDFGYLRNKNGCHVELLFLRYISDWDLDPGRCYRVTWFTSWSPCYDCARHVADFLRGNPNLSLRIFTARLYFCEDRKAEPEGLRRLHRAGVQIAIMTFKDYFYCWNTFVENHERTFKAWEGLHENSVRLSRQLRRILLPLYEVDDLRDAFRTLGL

What was measured:
HA-tagged NOP56 = HA-tagged NOP56 (UniProt O00567); experiment: co-IP; HEK293T cells transfected with FLAG-tagged AID (or AIDΔC) and HA-tagged FBL (WT, D1, D2), NOP56 or NOP58; lysates in NETN-100 buffer 24 h after transfection; protein A or G beads with the precipitating antibody, 4 °C overnight; reciprocal ('reversible') co-IP; Western blot
HA-tagged NOP58 = target: T1, HA-tagged NOP58 (UniProt Q9Y2X3); experiment: as above
T1 sequence: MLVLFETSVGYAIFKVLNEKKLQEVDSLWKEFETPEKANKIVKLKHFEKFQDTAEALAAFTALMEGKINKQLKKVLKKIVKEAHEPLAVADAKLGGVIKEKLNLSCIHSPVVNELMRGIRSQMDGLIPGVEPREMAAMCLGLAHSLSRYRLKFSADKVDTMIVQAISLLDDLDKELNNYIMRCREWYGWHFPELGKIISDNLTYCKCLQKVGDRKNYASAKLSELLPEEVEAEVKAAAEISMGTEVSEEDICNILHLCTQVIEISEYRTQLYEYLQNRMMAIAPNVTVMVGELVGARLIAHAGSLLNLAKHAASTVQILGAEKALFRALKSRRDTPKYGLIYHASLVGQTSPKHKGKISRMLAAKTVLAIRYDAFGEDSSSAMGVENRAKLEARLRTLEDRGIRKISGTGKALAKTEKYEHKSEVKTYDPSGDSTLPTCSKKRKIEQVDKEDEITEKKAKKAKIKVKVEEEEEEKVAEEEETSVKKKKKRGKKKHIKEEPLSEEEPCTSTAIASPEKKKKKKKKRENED

binding (HA-tagged NOP56): no binding
binding (HA-tagged NOP58): no binding
Substance: FLAG-tagged activation-induced cytidine deaminase (AID), wild type (from UniProt Q9GZX7 1-198) (enzyme)
